Measured data: PubChem BioAssay AID504793 (Drosophila RNAi Screening Center, 2011)

Purpose: 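Whole-genome screen for parts of the DNA damage checkpoint at G2/M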 (primary screen)
System: Drosophila S2R+ cells
Knock-down reagent: long dsRNA against Drosophila genes, about 0.25 µg dsRNA per well
Time to read-out: 4 days of dsRNA, then 4 hours of drug before read-out
Conditions: doxorubicin 0.5 µM for 4 hours to cause double-strand breaks, in cells also given a low, harmless dose of dsRNA against nbs to sensitise the assay
Measured: 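Mitotic index as the number of phospho-histone H3-positive cells in each well following doxorubicin, given as raw counts without normalisation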
Direction: mitotic cells: higher = more cells in mitosis, weaker G2 arrest
Call rule: 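Genes are called active only when high mitotic counts were reproduced with independent dsRNAs and mitosis was checked for delay without damage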
Meaning of the calls: active = confirmed in follow-up tests; inactive = not confirmed
The deposit covers about 23,000 reagents; this is an unselected part of those that have a named target and a result. Of all reagents, 62 (0.27%) were called active. 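Calls come from follow-up tests whose scores are not deposited, so confirmed genes may have low counts here; counts are not normalised per plate.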 The raw values are shown without normalisation. A plus sign joins genes that one reagent is predicted to hit.

gene knocked down | DRSC id | mitotic cells, replicate 1 | mitotic cells, replicate 2 | call
DAAM (Dishevelled Associated Activator of Morphogenesis) | DRSC18479 | 11 | – | inactive
CG31515 | DRSC13610 | 11 | – | inactive
CG8547 | DRSC07211 | 6 | – | inactive
CG8547 | DRSC28818 | 6 | – | inactive
Dpp10 (Dipeptidyl peptidase 10) | DRSC00942 | 7 | – | inactive
Dpp10 (Dipeptidyl peptidase 10) | DRSC02139 | 6 | – | inactive
CG6015 | DRSC15948 | 9 | – | inactive
CG6015 | DRSC28104 | 4 | – | inactive
Rchy1 (Ring finger and CHY zinc finger domain containing 1) | DRSC23118 | 13 | – | inactive
Rchy1 (Ring finger and CHY zinc finger domain containing 1) | DRSC26775 | 5 | – | inactive
CG4041 | DRSC18339 | 11 | – | inactive
CG4041 | DRSC26992 | 4 | – | inactive
knon (knotted onions) | DRSC07049 | 2 | – | inactive
Trissin | DRSC14994 | 5 | – | inactive
CG14346 | DRSC00376 | 5 | – | inactive
CG14346 | DRSC27555 | 9 | – | inactive
CG9775 | DRSC12330 | 4 | – | inactive
CG9775 | DRSC22667 | 15 | – | inactive
CG3546 | DRSC18308 | 14 | – | inactive
CG3546 | DRSC23647 | 4 | – | inactive
CG17724 | DRSC06687 | 9 | – | inactive
CG17724 | DRSC27618 | 10 | – | inactive
frma (fra mauro) | DRSC18297 | 6 | – | inactive
frma (fra mauro) | DRSC27843 | 8 | – | inactive
CG8568 | DRSC20113 | 4 | – | inactive
CG8568 | DRSC26687 | 7 | – | inactive
aspr (asperous) | DRSC20689 | 5 | – | inactive
aspr (asperous) | DRSC20690 | 9 | – | inactive
CG15200 | DRSC19647 | 9 | – | inactive
CG15200 | DRSC24618 | 2 | – | inactive
CG31086 + CG31323 | DRSC14902 | 5 | – | inactive
CG31086 + CG31323 | DRSC24466 | 10 | – | inactive
Bdbt (Bride of doubletime) | DRSC15218 | 12 | – | inactive
st (scarlet) | DRSC11399 | 4 | – | inactive
st (scarlet) | DRSC28257 | 11 | – | inactive
CG30480 | DRSC06736 | 8 | – | inactive
CG30480 | DRSC28831 | 5 | – | inactive
Mst87F (Male-specific RNA 87F) | DRSC16747 | 1 | – | inactive
Mst87F (Male-specific RNA 87F) | DRSC25350 | 5 | – | inactive
Or10a (Odorant receptor 10a) | DRSC20264 | 14 | – | inactive
Or10a (Odorant receptor 10a) | DRSC27634 | 5 | – | inactive
hoip (hoi-polloi) | DRSC03546 | 1 | – | inactive
cyp33 (cyclophilin-33) | DRSC07600 | 5 | – | inactive
CG33013 (retired record) | DRSC06286 | 6 | – | inactive
CG33013 (retired record) | DRSC25681 | 9 | – | inactive
Hen1 (Hen1 methyltransferase) | DRSC06139 | 8 | – | inactive
Hen1 (Hen1 methyltransferase) | DRSC06140 | 2 | – | inactive
Hen1 (Hen1 methyltransferase) | DRSC26993 | 4 | – | inactive
Ns3 (Nucleostemin 3) | DRSC18607 | 10 | – | inactive
Ns3 (Nucleostemin 3) | DRSC25847 | 4 | – | inactive
mthl5 (methuselah-like 5) | DRSC16155 | 3 | – | inactive
grp + CG31782 (retired record) | DRSC03541 | 46 | – | active
RanBPM (Ran-binding protein M) | DRSC06079 | 10 | – | inactive
RanBPM (Ran-binding protein M) | DRSC25174 | 5 | – | inactive
CG5968 | DRSC02916 | 7 | – | inactive
Strica (Ser/Thr-rich caspase) | DRSC04920 | 7 | – | inactive
CG10543 | DRSC23102 | 10 | – | inactive
Ufd1 (Ubiquitin fusion-degradation 1-like) | DRSC10607 | 12 | – | inactive
dpr11 (defective proboscis extension response 11) | DRSC12561 | 6 | – | inactive
dpr11 (defective proboscis extension response 11) | DRSC12562 | 6 | – | inactive
dpr11 (defective proboscis extension response 11) | DRSC12563 | 8 | – | inactive
chrb (charybde) | DRSC11335 | 3 | – | inactive
chrb (charybde) | DRSC25273 | 10 | – | inactive
Mob2 | DRSC09117 | 4 | – | inactive
Mob2 | DRSC09119 | 6 | – | inactive
Mob2 | DRSC23274 | 4 | – | inactive
Tfb1 (Transcription factor B1) | DRSC07082 | 3 | – | inactive
DENR (Density regulated protein) | DRSC20151 | 8 | – | inactive
Ccp84Ac | DRSC12588 | 5 | – | inactive
Ccp84Ac | DRSC25631 | 2 | – | inactive
CG11668 | DRSC14341 | 7 | – | inactive
CG31909 | DRSC22180 | 9 | – | inactive
CG31909 | DRSC26278 | 7 | – | inactive
Hsp23 (Heat shock protein 23) | DRSC11188 | – | – | inactive
Hsp23 (Heat shock protein 23) | DRSC29302 | 5 | – | inactive
Ref1 (RNA and export factor binding protein 1) | DRSC12497 | 5 | 11 | inactive
Ref1 (RNA and export factor binding protein 1) | DRSC22387 | 7 | – | inactive
Ser12 (Serine protease 12) | DRSC00786 | 6 | – | inactive
Osi19 (Osiris 19) | DRSC12569 | 4 | – | inactive
dome (domeless) | DRSC19583 | 4 | – | inactive

Continued (13 carried over from the part before).
gene knocked down | DRSC id | mitotic cells, replicate 1 | mitotic cells, replicate 2 | call
DENR (Density regulated protein) | DRSC20151 | 8 | – | inactive
Ccp84Ac | DRSC12588 | 5 | – | inactive
Ccp84Ac | DRSC25631 | 2 | – | inactive
CG11668 | DRSC14341 | 7 | – | inactive
CG31909 | DRSC22180 | 9 | – | inactive
CG31909 | DRSC26278 | 7 | – | inactive
Hsp23 (Heat shock protein 23) | DRSC11188 | – | – | inactive
Hsp23 (Heat shock protein 23) | DRSC29302 | 5 | – | inactive
Ref1 (RNA and export factor binding protein 1) | DRSC12497 | 5 | 11 | inactive
Ref1 (RNA and export factor binding protein 1) | DRSC22387 | 7 | – | inactive
Ser12 (Serine protease 12) | DRSC00786 | 6 | – | inactive
Osi19 (Osiris 19) | DRSC12569 | 4 | – | inactive
dome (domeless) | DRSC19583 | 4 | – | inactive
GPHR (Golgi pH Regulator) | DRSC07075 | 12 | – | inactive
mah (mahogany) | DRSC14645 | 18 | – | inactive
mah (mahogany) | DRSC28300 | 7 | – | inactive
Uxt (Uxt prefoldin-like subunit) | DRSC01962 | 4 | – | inactive
CG2321 | DRSC15439 | 4 | – | inactive
Rlb1 | DRSC16826 | 6 | – | inactive
Rlb1 | DRSC27846 | 6 | – | inactive
CBP (sarcoplasmic calcium-binding protein) | DRSC17746 | 9 | – | inactive
CG34445 | DRSC22404 | 16 | – | inactive
CG3528 | DRSC00611 | 4 | – | inactive
CG3528 | DRSC26034 | 8 | – | inactive
Sxl + CG14425 (retired record) | DRSC18721 | 5 | – | inactive
Sxl + CG14425 (retired record) | DRSC18722 | 17 | – | inactive
Sxl + CG14425 (retired record) | DRSC21490 | 12 | – | inactive
Sxl + CG14425 (retired record) | DRSC28896 | 4 | – | inactive
CG3544 | DRSC00613 | 9 | – | inactive
geko | DRSC10044 | 5 | – | inactive
geko | DRSC10045 | 9 | – | inactive
Mhcl (Myosin heavy chain-like) | DRSC13130 | 5 | – | inactive
Mhcl (Myosin heavy chain-like) | DRSC14216 | 1 | – | inactive
Mhcl (Myosin heavy chain-like) | DRSC16753 | 10 | – | inactive
Ogg1 (8-oxoguanine DNA glycosylase) | DRSC17738 | 6 | – | inactive
Cox11 (Cytochrome c oxidase copper chaperone COX11) | DRSC22692 | 8 | – | inactive
CG13893 | DRSC08363 | 3 | – | inactive
Dp1 (Dodeca-satellite-binding protein 1) | DRSC07403 | 2 | – | inactive
ND-30 (NADH dehydrogenase (ubiquinone) 30 kDa subunit) | DRSC08243 | 5 | – | inactive
MESK2 + CG10494 | DRSC04259 | 4 | – | inactive
GAPsec (GTPase activating protein, SECIS-dependent read-through) | DRSC10564 | 11 | – | inactive
GAPsec (GTPase activating protein, SECIS-dependent read-through) | DRSC26128 | 4 | – | inactive
Wwox (WW domain containing oxidoreductase) | DRSC03030 | 12 | – | inactive
Wwox (WW domain containing oxidoreductase) | DRSC22872 | 7 | – | inactive
Wwox (WW domain containing oxidoreductase) | DRSC25933 | 10 | – | inactive
yellow-g2 | DRSC08338 | 6 | – | inactive
Cp16 (Chorion protein 16) | DRSC11119 | 8 | – | inactive
Cp16 (Chorion protein 16) | DRSC25549 | 4 | – | inactive
COX5BL (Cytochrome c oxidase subunit 5B-like) | DRSC02123 | 5 | – | inactive
COX5BL (Cytochrome c oxidase subunit 5B-like) | DRSC27300 | 4 | – | inactive
btsz (bitesize) | DRSC16231 | 7 | – | inactive
ple (pale) | DRSC11383 | 2 | – | inactive
CG32137 | DRSC10271 | 9 | – | inactive
CG12446 | DRSC20618 | 6 | – | inactive
Elk (Eag-like K[+] channel) | DRSC07608 | 5 | – | inactive
CG34425 | DRSC12210 | 7 | – | inactive
CG34425 | DRSC22315 | 11 | – | inactive
CG11018 | DRSC06024 | 4 | – | inactive
CG11018 | DRSC28771 | 8 | – | inactive
CG13538 | DRSC04180 | 4 | – | inactive
CG17375 | DRSC02614 | 5 | – | inactive
CG17375 | DRSC29517 | 8 | – | inactive
CG2930 | DRSC17730 | 7 | – | inactive
CG2930 | DRSC26303 | 4 | – | inactive
Pisd (Phosphatidylserine decarboxylase) | DRSC15935 | 6 | – | inactive
CG17528 | DRSC07761 | 13 | – | inactive
CG8319 | DRSC16407 | 4 | – | inactive
CG8319 | DRSC24607 | 11 | – | inactive
pit (pitchoune) | DRSC17025 | 7 | – | inactive
pit (pitchoune) | DRSC22798 | 6 | – | inactive
pit (pitchoune) | DRSC28254 | 5 | – | inactive
Pde8 (Phosphodiesterase 8) | DRSC04503 | 7 | – | inactive
Pde8 (Phosphodiesterase 8) | DRSC29684 | 7 | – | inactive
